Data source: PubChem BioAssay AID1259424 (University of Nebraska Medical Center, 2018)
In all, the deposit lists about 14,000 reagents; below is a part drawn at random. 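Higher correlation or smaller distance means closer resemblance to KSR1 loss; control wells, including KSR1 knockdowns, recur on many plates.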 Not given: the time to read-out.

Screen: 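Rank knockdowns across the genome by resemblance to the KSR1 depletion profile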 (primary screen)
Cells: human HCT116 colon cancer cells
Reagents: siRNA pool against human genes, 50 nM
Read-out: 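Six signature mRNAs by branched-DNA multiplex assay, scaled to two housekeeping genes and non-targeting median, log2; matched to mean KSR1 knockdown profile by Pearson correlation and euclidean distance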
Reading the numbers: mean correlation with KSR1 profile and KSR1 correlation: higher = expression change more like KSR1 knockdown; mean distance from KSR1 profile: higher = expression change less like KSR1 knockdown

target gene | mean correlation with KSR1 profile | mean distance from KSR1 profile | KSR1 correlation, replicate 1 | KSR1 correlation, replicate 2 | KSR1 correlation, replicate 3
XYLB | 0.237 | 1.93 | 0.386 | 0.243 | -0.204
CD7 | -0.361 | 4.34 | -0.319 | -0.335 | -0.561
PURG | -0.292 | 2.42 | -0.625 | -0.472 | -0.336
PROP1 | 0.686 | 2.11 | 0.587 | 0.883 | 0.617
PCCA | -0.374 | 1.79 | -0.468 | -0.356 | -0.337
MYO7A | -0.393 | 2.18 | -0.284 | -0.192 | -0.596
TACC2 | 0.0321 | 2.51 | -0.0771 | -0.0179 | 0.106
SLC35A5 | -0.0966 | 3.91 | 0.0808 | -0.216 | -0.242
TNFSF4 | 0.0807 | 0.968 | 0.463 | -0.527 | -0.387
SACS | -0.464 | 1.62 | -0.305 | -0.214 | -0.526
VPS8 | 0.267 | 2.09 | 0.251 | 0.0879 | 0.268
ULK4 | 0.806 | 2.49 | 0.897 | 0.79 | 0.415
BEND3 | -0.04 | 1.38 | -0.0993 | 0.223 | -0.253
HOXC10 | 0.247 | 6.2 | 0.468 | 0.392 | 0.37
PPHLN1 | -0.918 | 2.14 | -0.761 | -0.717 | -0.829
KIAA1328 | -0.748 | 4.77 | -0.665 | -0.519 | -0.618
DDRGK1 | -0.66 | 1.89 | -0.738 | -0.611 | -0.615
ISG20L2 | 0.147 | 1.89 | 0.00492 | -0.117 | 0.273
USP32P2 | 0.329 | 1.02 | 0.326 | 0.316 | 0.243
CTDSPL | -0.0525 | 2.43 | 0.0185 | -0.135 | -0.272
CLN3 | -0.207 | 1.51 | -0.208 | -0.261 | -0.281
SPR | -0.254 | 2.31 | -0.158 | -0.439 | -0.329
GPM6A | -0.623 | 2.2 | -0.691 | -0.701 | -0.551
LMCD1 | 0.0155 | 1.82 | -0.269 | -0.169 | 0.000165
GCNT3 | -0.523 | 3.11 | -0.697 | -0.349 | -0.43
ANKRD26 | 0.411 | 1.04 | 0.496 | 0.451 | 0.3
CTRB1 | 0.59 | 1.89 | 0.7 | 0.466 | 0.56
EHMT2 | -0.297 | 1.67 | -0.377 | -0.174 | -0.466
BMP15 | 0.47 | 1.06 | 0.723 | 0.0536 | 0.696
SLC2A8 | 0.601 | 1.24 | 0.56 | 0.491 | 0.521
RHEB | -0.74 | 5.28 | -0.786 | -0.714 | -0.75
TUBB3 | -0.306 | 1.63 | -0.336 | -0.161 | -0.698
RETN | 0.0371 | 0.863 | 0.309 | 0.0342 | 0.195
ELOVL2 | 0.244 | 1.55 | 0.173 | 0.0387 | 0.452
HEG1 | -0.105 | 3.28 | 0.0458 | -0.0595 | 0.0683
GGA3 | 0.0761 | 1.28 | 0.0769 | 0.29 | -0.155
ANKRD7 | 0.16 | 1.83 | 0.0271 | 0.12 | 0.145
ACER3 | -0.708 | 2.22 | -0.825 | -0.684 | -0.758
LHCGR | 0.793 | 1.63 | 0.721 | 0.833 | 0.811
SMG7 | -0.0451 | 2.12 | 0.137 | -0.275 | 0.091
METTL25 | 0.836 | 0.902 | 0.64 | 0.483 | 0.923
LIG4 | -0.294 | 2.02 | -0.238 | -0.391 | -0.323
GMFB | 0.0849 | 2.3 | 0.158 | 0.0636 | -0.242
DCAF13 | -0.209 | 1.49 | -0.25 | -0.198 | -0.233
TENT4B | 0.734 | 1.51 | 0.615 | 0.8 | 0.724
EIF4EBP1 | -0.341 | 1.86 | 0.142 | -0.499 | -0.301
PIM1 | 0.481 | 2.03 | 0.468 | 0.627 | 0.416
CRYGA | -0.304 | 2.78 | -0.367 | -0.332 | -0.48
ICMT | -0.42 | 1.91 | -0.478 | -0.35 | -0.403
VWA8 | -0.396 | 2 | -0.365 | -0.542 | -0.278

A few values from above.
Result of SPR in “KSR1 correlation, replicate 3”: -0.329
Value of MYO7A under “mean distance from KSR1 profile”: 2.18
Value of VWA8 under “mean correlation with KSR1 profile”: -0.396
Under “KSR1 correlation, replicate 1”, PPHLN1 has -0.761
